These are yes or no findings as the source states them, for the method shown. Binding seen in cells or lysates may run through a third protein. Some results given as binding are weak or reduced against the parent protein; the word gives no strength.
How the values were obtained:
[1] = target: β-catenin (mouse (endogenous in primary Ptch+/- MB cells)) (UniProt Q02248); assay: proximity ligation; primary Ptch+/- MB cells on μ-slides, NaCl or LiCl for 8 h; anti-Gli1 and anti-β-catenin antibodies, Duolink In Situ PLA probes; confocal microscopy
[2] = target: β-catenin (mouse (endogenous in primary Ptch+/- MB cells)) (UniProt Q02248); assay: co-IP; extracts of primary Ptch+/- MB cells treated with NaCl or LiCl (8 h); immunoprecipitated with anti-β-catenin antibody prebound to protein G-agarose; Gli1 detected by Western blot

The chains behind the UniProt entries cited, without tags or fusion partners.
UniProt Q02248: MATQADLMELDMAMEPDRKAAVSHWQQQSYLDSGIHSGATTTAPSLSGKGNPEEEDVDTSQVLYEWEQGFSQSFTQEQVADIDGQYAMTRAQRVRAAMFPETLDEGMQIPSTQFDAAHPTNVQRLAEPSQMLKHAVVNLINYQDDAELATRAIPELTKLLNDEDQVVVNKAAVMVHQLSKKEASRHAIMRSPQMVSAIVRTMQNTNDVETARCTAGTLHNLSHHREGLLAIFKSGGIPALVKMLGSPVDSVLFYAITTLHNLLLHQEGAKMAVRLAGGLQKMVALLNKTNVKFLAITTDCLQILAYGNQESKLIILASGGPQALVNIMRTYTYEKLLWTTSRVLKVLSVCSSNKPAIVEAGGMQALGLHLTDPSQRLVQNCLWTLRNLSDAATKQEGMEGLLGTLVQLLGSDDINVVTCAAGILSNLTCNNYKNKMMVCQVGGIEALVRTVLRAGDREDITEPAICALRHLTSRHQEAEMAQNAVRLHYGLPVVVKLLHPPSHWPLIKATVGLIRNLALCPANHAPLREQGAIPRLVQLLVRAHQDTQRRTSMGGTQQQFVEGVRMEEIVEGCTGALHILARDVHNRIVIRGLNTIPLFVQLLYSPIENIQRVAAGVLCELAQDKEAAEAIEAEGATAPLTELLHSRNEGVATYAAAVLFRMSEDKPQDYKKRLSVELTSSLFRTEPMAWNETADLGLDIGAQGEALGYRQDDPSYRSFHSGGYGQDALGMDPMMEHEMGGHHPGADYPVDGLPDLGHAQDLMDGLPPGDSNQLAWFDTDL
UniProt P47806: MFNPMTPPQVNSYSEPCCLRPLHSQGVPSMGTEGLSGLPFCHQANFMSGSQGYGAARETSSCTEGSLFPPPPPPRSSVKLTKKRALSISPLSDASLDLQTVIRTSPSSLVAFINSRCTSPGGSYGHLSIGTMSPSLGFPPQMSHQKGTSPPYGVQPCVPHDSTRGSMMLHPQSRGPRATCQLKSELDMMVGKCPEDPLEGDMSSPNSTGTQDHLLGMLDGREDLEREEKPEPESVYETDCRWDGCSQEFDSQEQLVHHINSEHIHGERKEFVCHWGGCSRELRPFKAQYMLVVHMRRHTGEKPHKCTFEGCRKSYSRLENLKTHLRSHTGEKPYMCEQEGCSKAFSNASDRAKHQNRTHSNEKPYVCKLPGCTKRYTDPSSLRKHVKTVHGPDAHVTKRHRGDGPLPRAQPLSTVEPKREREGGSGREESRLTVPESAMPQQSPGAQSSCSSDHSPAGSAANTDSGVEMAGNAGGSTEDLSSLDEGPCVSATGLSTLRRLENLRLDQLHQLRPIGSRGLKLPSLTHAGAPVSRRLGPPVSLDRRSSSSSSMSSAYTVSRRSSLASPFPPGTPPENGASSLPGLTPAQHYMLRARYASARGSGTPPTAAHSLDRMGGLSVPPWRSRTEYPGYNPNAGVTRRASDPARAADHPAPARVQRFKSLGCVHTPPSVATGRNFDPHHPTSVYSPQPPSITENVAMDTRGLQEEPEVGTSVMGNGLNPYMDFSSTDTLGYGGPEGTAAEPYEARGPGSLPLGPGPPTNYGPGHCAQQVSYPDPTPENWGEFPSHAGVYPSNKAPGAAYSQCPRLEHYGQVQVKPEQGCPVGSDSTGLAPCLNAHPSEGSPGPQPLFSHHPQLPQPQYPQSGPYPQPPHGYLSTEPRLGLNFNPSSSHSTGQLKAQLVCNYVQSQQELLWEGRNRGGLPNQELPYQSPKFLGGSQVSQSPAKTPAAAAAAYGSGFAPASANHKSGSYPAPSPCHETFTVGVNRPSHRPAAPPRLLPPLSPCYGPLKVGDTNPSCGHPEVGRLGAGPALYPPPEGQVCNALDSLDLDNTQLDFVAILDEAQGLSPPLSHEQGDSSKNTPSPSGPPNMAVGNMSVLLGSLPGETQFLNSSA

## Gli1 (from UniProt P47806 1-1111)
[1]
  binding: binds
[2]
  binding: binds
